Measured values as given in publication PMC10314905, “Architecture of a complete Bce-type antimicrobial peptide resistance module” (Nature Communications, 2023).
Results are given in words; binding and its absence hold for the method and conditions named. For part of these data: In cells and extracts the contact can be indirect. Some entries that bind do so weakly or less than the wild type. For part of these data: Where a sequence is shown, tags or fusion partners need not be part of it.

Legend:
[1] = molecular target: T1, BceAB ABC transporter (BceA2:BceB1) (B. subtilis, UniProt O34697 2-253; O34741 1-646); experiment: cryo-EM structure; BceAB-S, co-expressed and co-purified complex in LMNG, incubated on ice with 5 mM ATPγS and 5 mM MgCl2 for 30 min before freezing; both purified
T1 construct: BceA of Bacillus subtilis, as m1; BceB of Bacillus subtilis, as m2; The construct for isolated BceAB (without BceS) is not described here; also called BceAB transporter; isolated BceAB; source: E. coli C41(DE3), co-expressed (with or without BceS), purified (LMNG, Co3+-Talon, Superdex 200); not shown: His6, N-terminal, kept; copies: 2 + 1
T1 sequence 1: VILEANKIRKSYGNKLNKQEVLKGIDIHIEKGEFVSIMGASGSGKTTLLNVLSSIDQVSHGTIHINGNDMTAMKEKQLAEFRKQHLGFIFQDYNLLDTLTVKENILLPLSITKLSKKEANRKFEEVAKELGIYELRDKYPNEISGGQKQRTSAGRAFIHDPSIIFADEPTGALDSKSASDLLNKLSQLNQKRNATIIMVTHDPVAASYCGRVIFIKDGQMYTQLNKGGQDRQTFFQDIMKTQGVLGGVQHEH
T1 sequence 2: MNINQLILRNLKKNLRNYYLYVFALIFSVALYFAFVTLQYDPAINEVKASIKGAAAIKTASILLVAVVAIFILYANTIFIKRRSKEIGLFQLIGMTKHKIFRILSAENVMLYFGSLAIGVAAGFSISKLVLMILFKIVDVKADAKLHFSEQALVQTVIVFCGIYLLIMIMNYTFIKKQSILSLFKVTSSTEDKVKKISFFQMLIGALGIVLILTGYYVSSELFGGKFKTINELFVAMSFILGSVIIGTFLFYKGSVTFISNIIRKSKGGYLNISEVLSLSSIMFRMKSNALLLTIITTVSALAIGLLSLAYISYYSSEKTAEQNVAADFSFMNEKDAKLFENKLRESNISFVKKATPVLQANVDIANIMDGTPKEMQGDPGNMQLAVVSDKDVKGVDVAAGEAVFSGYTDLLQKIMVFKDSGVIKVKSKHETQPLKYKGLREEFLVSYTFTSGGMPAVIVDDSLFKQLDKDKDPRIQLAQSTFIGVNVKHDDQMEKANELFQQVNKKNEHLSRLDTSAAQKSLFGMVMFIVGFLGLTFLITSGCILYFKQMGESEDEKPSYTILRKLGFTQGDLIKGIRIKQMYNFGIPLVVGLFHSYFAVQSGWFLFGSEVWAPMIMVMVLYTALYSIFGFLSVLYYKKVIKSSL

[2] = molecular target: T1, BceAB ABC transporter (BceA2:BceB1); experiment: pull-down + SEC; proteins co-expressed in E. coli from one plasmid; membranes solubilised with 1% LMNG; His6-BceA held on Co3+-Talon resin, eluted with 250 mM imidazole; Superdex 200 Increase 10/300 GL in 25 mM Tris pH 8, 150 mM NaCl, 0.005% LMNG; SDS-PAGE of peak fractions; chromatogram compared with isolated …
[3] = molecular target: T1, BceAB ABC transporter (BceA2:BceB1); experiment: cryo-EM structure; nucleotide-free BceAB-S, co-expressed and co-purified complex in LMNG at ~7 mg/mL; Titan Krios, K3; both purified
[4] = molecular target: T2, BceB, membrane-spanning permease of the ABC transporter BceAB (B. subtilis) (UniProt O34741); experiment: as above
T2 sequence: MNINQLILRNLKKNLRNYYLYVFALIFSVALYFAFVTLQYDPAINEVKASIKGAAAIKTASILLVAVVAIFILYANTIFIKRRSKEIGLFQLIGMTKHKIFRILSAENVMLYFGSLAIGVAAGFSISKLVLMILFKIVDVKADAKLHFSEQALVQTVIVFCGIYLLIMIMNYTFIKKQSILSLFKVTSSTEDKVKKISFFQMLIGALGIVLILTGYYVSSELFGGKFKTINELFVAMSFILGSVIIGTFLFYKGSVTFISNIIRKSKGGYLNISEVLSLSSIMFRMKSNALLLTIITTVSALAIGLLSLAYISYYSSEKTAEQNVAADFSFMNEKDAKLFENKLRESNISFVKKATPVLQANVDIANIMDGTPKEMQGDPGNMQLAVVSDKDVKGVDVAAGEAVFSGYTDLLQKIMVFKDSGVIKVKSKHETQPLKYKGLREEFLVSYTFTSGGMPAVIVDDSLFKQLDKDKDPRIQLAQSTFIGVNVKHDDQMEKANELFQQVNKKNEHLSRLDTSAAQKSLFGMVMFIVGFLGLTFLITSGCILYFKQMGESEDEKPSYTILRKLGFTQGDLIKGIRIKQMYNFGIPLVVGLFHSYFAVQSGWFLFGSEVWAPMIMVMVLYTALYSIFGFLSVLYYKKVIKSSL

[5] = molecular target: T3, BceA, ATPase (nucleotide binding domain) subunit of the ABC transporter BceAB (B. subtilis) (UniProt O34697); experiment: pull-down + SEC; proteins co-expressed in E. coli from one plasmid; membranes solubilised with 1% LMNG; His6-BceA held on Co3+-Talon resin, eluted with 250 mM imidazole; Superdex 200 Increase 10/300 GL in 25 mM Tris pH 8, 150 mM NaCl, 0.005% LMNG; SDS-PAGE of peak fractions; chromatogram compared with isolated …
T3 sequence: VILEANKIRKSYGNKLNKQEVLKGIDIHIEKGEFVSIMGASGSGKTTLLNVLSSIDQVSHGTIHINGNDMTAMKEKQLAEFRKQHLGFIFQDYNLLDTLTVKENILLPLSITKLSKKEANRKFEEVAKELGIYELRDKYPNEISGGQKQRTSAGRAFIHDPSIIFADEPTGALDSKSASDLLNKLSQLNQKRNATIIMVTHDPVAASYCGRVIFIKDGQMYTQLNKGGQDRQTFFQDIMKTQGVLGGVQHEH

[6] = molecular target: T3, BceA, ATPase (nucleotide binding domain) subunit of the ABC transporter BceAB (B. subtilis); experiment: cryo-EM structure; nucleotide-free BceAB-S, co-expressed and co-purified complex in LMNG at ~7 mg/mL; Titan Krios, K3; both purified

B1: BceS sensor histidine kinase (natural protein, B. subtilis, UniProt O35044 1-334, looked up)
chain: MIKAFLIERRSWIAAFLFQQALMLFIAFVDPSISFGNVLYMVYLCILFFIIFLWFRYRKETAFYKSLKTWENNLDVTAINEPETPFEAMVERSIAGQTEHLKQTAARHRLALENEKDELMAWIHEVKTPLTAMHLIIDRMEEKALKSQLSYEWLRIHLLLDQQLHQKRISFIENDLSVEFIQLQPLIFKEIKDLQSWCIQKGIGFDIQLEAKEVLSDAKWLAFIIRQLLTNAVKYSEASEIEIKSFQKGEQTQLQVKDCGRGIDPKDVPRIFDKGFTSTTDHHDQASTGMGLYLAKKAAAPLLIHIDVESEFGAGTVFTLTFPIRNQFEHVISV
notes: BceS of Bacillus subtilis; gene PCR amplified from B. subtilis genomic DNA; Dimer in the BceAB-S complex; also called BceS kinase; BceS dimer
binding [1]: binds
binding [2]: binds
binding [3]: binds
binding [4]: binds

B2: BceS E115K variant (protein, UniProt O35044 1-334)
chain: MIKAFLIERRSWIAAFLFQQALMLFIAFVDPSISFGNVLYMVYLCILFFIIFLWFRYRKETAFYKSLKTWENNLDVTAINEPETPFEAMVERSIAGQTEHLKQTAARHRLALENKKDELMAWIHEVKTPLTAMHLIIDRMEEKALKSQLSYEWLRIHLLLDQQLHQKRISFIENDLSVEFIQLQPLIFKEIKDLQSWCIQKGIGFDIQLEAKEVLSDAKWLAFIIRQLLTNAVKYSEASEIEIKSFQKGEQTQLQVKDCGRGIDPKDVPRIFDKGFTSTTDHHDQASTGMGLYLAKKAAAPLLIHIDVESEFGAGTVFTLTFPIRNQFEHVISV
binding [2]: binds

B3: BceS E115K/K116E double charge swap variant (protein, UniProt O35044 1-334)
chain: MIKAFLIERRSWIAAFLFQQALMLFIAFVDPSISFGNVLYMVYLCILFFIIFLWFRYRKETAFYKSLKTWENNLDVTAINEPETPFEAMVERSIAGQTEHLKQTAARHRLALENKEDELMAWIHEVKTPLTAMHLIIDRMEEKALKSQLSYEWLRIHLLLDQQLHQKRISFIENDLSVEFIQLQPLIFKEIKDLQSWCIQKGIGFDIQLEAKEVLSDAKWLAFIIRQLLTNAVKYSEASEIEIKSFQKGEQTQLQVKDCGRGIDPKDVPRIFDKGFTSTTDHHDQASTGMGLYLAKKAAAPLLIHIDVESEFGAGTVFTLTFPIRNQFEHVISV
binding [2]: binds

B4: BceS E115K with H124Q substitution (protein, UniProt O35044 1-334)
chain: MIKAFLIERRSWIAAFLFQQALMLFIAFVDPSISFGNVLYMVYLCILFFIIFLWFRYRKETAFYKSLKTWENNLDVTAINEPETPFEAMVERSIAGQTEHLKQTAARHRLALENKKDELMAWIQEVKTPLTAMHLIIDRMEEKALKSQLSYEWLRIHLLLDQQLHQKRISFIENDLSVEFIQLQPLIFKEIKDLQSWCIQKGIGFDIQLEAKEVLSDAKWLAFIIRQLLTNAVKYSEASEIEIKSFQKGEQTQLQVKDCGRGIDPKDVPRIFDKGFTSTTDHHDQASTGMGLYLAKKAAAPLLIHIDVESEFGAGTVFTLTFPIRNQFEHVISV
binding [2]: binds

B5: BceB, membrane-spanning permease of the ABC transporter BceAB (protein, UniProt O34741 1-646)
chain: MNINQLILRNLKKNLRNYYLYVFALIFSVALYFAFVTLQYDPAINEVKASIKGAAAIKTASILLVAVVAIFILYANTIFIKRRSKEIGLFQLIGMTKHKIFRILSAENVMLYFGSLAIGVAAGFSISKLVLMILFKIVDVKADAKLHFSEQALVQTVIVFCGIYLLIMIMNYTFIKKQSILSLFKVTSSTEDKVKKISFFQMLIGALGIVLILTGYYVSSELFGGKFKTINELFVAMSFILGSVIIGTFLFYKGSVTFISNIIRKSKGGYLNISEVLSLSSIMFRMKSNALLLTIITTVSALAIGLLSLAYISYYSSEKTAEQNVAADFSFMNEKDAKLFENKLRESNISFVKKATPVLQANVDIANIMDGTPKEMQGDPGNMQLAVVSDKDVKGVDVAAGEAVFSGYTDLLQKIMVFKDSGVIKVKSKHETQPLKYKGLREEFLVSYTFTSGGMPAVIVDDSLFKQLDKDKDPRIQLAQSTFIGVNVKHDDQMEKANELFQQVNKKNEHLSRLDTSAAQKSLFGMVMFIVGFLGLTFLITSGCILYFKQMGESEDEKPSYTILRKLGFTQGDLIKGIRIKQMYNFGIPLVVGLFHSYFAVQSGWFLFGSEVWAPMIMVMVLYTALYSIFGFLSVLYYKKVIKSSL
binding [5]: binds
binding [6]: binds
